Test results published in US20220064314A1 (QLSF BIOTHERAPEUTICS, published 2022).
Positions count from the first letter of the chain named. These are yes or no findings as the source states them, for the method shown. Some entries that bind do so weakly or less than the wild type.

By UniProt entry, the sequences of proteins in these tests, tags left out. Residues count along the entry.
UniProt Q07011, residues 24-255: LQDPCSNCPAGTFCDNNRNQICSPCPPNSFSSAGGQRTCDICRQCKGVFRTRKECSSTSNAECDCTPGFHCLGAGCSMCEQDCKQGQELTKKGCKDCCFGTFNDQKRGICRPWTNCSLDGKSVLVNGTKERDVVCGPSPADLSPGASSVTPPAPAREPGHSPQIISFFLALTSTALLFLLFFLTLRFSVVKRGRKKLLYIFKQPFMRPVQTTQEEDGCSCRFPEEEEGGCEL

B1: cAb 137QL.F1.1.G2 (antibody, human IgG2, V domains shown)
VH: QVQLQQSGAELARPGASVKMSCKASGYTFTFYTMHWLKQRPGQGLEWIGYINPSSGYTNYNQKFTDKATLTADKSSSTAYMQLSSLTSEDSAVYYCARSDGSSSKWYFDVWGTGTTVTVSS
VL: QIVLSQSPTILSASPGEKVTMTCRASSSVSYIHWYQQKPGSSPKAWISATSNLASGVPARFSGSGSGTSYSLTISRVEAEDAATYYCQQWSSNPFTFGSGTKLEIK
notes: Chimeric antibody; also called Chimeric F1.1; cAb F1.1.G2
B2: cAB 137QL.G28.21.G2 (antibody, human IgG2, V domains shown)
VH: EVQLQQSGAELVRPGASVKLSCTASGFNIKDYYIHWVNQRPEQGLEWIGRIDPEDGDIAYAPKFQDKATLTVDTSSNTAYLHIIGLTSEDTAVYYCTTGNYYAMDFWGQGTSVTVSS
VL: QIVLTQSPAIMSASLGERVTMTCTASSSVSSSYLHWYQQKPGSSPKLWIYSTSNLASGVPARFSGSGSGTSYSLTISSMEAEDAATYYCHQYHRSPPTFGSGTKLEIK
notes: Chimeric antibody; also called Chimeric G28.21; cAb G28.21.G2
B3: huF1.1.G2.2.4 (antibody, human IgG2, kappa, V domains shown)
VH: QVQLVQSGAEVKKPGASVKVSCKASGYTFTFYTMHWLRQAPGQGLEWIGYINPSSGYTNYNQKFTDRATLTADTSTSTAYMELSSLRSEDTAVYYCARSDGSSSKWYFDVWGQGTTVTVSS
VL: EIVLTQSPDFQSATPKEKVTITCRASSSVSYIHWYQQKPGSSPKAWISATSNLASGVPSRFSGSGSGTSYTLTINRVEAEDAATYYCQQWSSNPFTFGQGTKLEIKR
notes: also called huF1.1.2.4
B4: huF1.1.G2.4.4 (antibody, human IgG2, kappa, V domains shown)
VH: B3 VH with V20M, R38K, T74K
VL: B3 VL
notes: also called huF1.1.4.4
B5: huG28.21.G2.1.4 (antibody, human IgG2, kappa, V domains shown)
VH: EVQLVQSGAEVKKPGATVKISCKASGFNIKDYYIHWVNQAPGKGLEWIGRIDPEDGDIAYAPKFQDRVTLTVDTSTDTAYLELSSLRSEDTAVYYCTTGNYYAMDFWGQGTTVTVSS
VL: QIVLTQSPATLSASPGERVTLSCTASSSVSSSYLHWYQQKPGSSPKLWIYSTSNLASGVPARFSGSGPGTSYTLTISSMEPEDAATYYCHQYHRSPPTFGQGTKLEIKR
notes: also called huG28.21.1.4
B6: huG28.21.G2.4.4 (antibody, human IgG2, kappa, V domains shown)
VH: B5 VH with V5Q, I20L, A40R, K43Q, V68A, D77N
VL: B5 VL
notes: also called huG28.21.4.4

Target: human 4-1BB on cells (human, UniProt Q07011 24-255)
Assay: flow cytometry on 4-1BB expressing cells

Row | Binder | binding
1 | B1 | binds
2 | B2 | binds
3 | B3 | binds
4 | B4 | binds
5 | B5 | binds
6 | B6 | binds
